Laboratory results: publication PMC12622436
These are yes or no findings as the source states them, for the method shown. For part of these data: Binding seen in cells or lysates may run through a third protein. Some entries that bind do so weakly or less than the wild type. For part of these data: Sequences can lack the tags named with a protein.

Assays:
[1] = molecular target: T1, Clathrin light chain B, tagged fusion protein for GST pull-down (UniProt P09497); experiment: pull-down; 0.5 mg each of His-tagged and GST-tagged fusion proteins combined, 3 h on ice; Glutathione Sepharose 4B; five washes; eluted with 15 mM reduced glutathione; blot with anti-His; both purified
T1 sequence: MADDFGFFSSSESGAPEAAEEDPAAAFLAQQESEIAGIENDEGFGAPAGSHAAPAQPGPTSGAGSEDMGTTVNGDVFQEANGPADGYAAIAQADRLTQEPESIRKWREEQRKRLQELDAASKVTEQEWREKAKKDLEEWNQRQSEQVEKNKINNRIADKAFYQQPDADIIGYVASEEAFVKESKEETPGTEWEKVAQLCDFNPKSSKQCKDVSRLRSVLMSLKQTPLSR

[2] = molecular target: T2, Clathrin light chain B (human (endogenous in HUVECs)) (UniProt P09497); experiment: co-IP; HUVEC NP-40 lysate (500 ug) with 2 ug anti-CLTB or rabbit IgG, overnight 4 C; Protein A/G magnetic beads; blot
T2 sequence: T1 sequence

[3] = molecular target: CBL (human (endogenous in HUVECs)) (UniProt P22681); experiment: co-IP; HUVEC NP-40 lysate (500 ug) with 2 ug anti-CBL or rabbit IgG, overnight 4 C; Protein A/G magnetic beads; blot; cells untreated or treated with PBS, CLTB-NC-sEVs or CLTB-OE-sEVs

Row | Substance | binding [1] | binding [2] | binding [3]
1 | SH3 domain-containing kinase-binding protein 1, tagged fusion protein for GST pull-down (from UniProt Q96B97 1-665) | binds |  | 
2 | SH3 domain-containing kinase-binding protein 1 (from UniProt Q96B97 1-665) |  | binds | binds
